In the supplement of paper PMC10849652:
Some of the results follow.

Amino acid sequences for entries named in this document (tags omitted). A change or cut given only in a name is not applied to a line headed by its entry.
UniProt Q9UPW6: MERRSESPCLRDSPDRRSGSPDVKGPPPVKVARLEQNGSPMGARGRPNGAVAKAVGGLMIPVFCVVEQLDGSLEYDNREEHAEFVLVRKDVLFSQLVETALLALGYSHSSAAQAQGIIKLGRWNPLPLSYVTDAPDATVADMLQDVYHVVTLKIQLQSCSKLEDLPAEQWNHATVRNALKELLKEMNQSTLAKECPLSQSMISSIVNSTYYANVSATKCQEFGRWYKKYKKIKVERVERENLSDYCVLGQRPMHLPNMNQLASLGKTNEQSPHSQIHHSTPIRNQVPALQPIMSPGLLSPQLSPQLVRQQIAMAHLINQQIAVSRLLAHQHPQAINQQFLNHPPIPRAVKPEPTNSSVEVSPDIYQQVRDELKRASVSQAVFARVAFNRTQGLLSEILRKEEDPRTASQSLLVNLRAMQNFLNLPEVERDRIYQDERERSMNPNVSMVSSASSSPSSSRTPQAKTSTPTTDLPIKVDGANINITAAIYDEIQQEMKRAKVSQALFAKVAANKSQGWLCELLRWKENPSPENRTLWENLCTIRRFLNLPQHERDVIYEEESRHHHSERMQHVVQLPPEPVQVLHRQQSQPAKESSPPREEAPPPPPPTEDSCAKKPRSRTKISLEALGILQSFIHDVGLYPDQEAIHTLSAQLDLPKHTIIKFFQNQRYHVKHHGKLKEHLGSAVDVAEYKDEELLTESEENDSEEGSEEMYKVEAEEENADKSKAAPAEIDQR
UniProt P60059: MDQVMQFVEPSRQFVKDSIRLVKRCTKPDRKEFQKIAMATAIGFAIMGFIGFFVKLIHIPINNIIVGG
UniProt Q9Y512: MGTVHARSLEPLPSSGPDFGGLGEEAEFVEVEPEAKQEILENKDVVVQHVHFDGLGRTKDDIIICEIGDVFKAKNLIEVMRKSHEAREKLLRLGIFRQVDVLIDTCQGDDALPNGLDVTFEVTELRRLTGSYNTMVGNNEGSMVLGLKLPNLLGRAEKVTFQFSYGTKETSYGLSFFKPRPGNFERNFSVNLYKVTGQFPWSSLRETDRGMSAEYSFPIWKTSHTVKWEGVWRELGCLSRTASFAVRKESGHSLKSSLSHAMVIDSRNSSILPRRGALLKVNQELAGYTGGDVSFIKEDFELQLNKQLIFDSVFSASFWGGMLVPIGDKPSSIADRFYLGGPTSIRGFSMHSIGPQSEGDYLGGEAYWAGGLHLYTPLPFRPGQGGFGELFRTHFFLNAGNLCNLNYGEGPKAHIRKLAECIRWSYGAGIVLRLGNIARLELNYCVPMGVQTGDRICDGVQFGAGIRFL
UniProt O75396: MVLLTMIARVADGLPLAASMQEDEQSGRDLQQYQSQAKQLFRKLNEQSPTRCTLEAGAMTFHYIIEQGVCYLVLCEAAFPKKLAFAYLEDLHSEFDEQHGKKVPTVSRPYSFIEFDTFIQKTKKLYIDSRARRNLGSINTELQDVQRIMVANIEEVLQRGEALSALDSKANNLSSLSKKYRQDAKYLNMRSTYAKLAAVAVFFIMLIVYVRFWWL
UniProt P49903: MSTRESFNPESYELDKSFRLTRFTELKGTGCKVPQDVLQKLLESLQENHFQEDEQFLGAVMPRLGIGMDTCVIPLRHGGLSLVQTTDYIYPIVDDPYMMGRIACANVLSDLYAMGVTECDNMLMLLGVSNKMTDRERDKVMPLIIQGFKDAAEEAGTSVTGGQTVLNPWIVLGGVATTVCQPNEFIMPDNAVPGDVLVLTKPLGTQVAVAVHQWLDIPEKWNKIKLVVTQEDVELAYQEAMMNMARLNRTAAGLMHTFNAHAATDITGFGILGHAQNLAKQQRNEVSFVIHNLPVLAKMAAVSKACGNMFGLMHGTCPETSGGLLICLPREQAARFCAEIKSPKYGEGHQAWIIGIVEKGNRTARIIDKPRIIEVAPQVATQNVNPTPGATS
UniProt Q9NSI8: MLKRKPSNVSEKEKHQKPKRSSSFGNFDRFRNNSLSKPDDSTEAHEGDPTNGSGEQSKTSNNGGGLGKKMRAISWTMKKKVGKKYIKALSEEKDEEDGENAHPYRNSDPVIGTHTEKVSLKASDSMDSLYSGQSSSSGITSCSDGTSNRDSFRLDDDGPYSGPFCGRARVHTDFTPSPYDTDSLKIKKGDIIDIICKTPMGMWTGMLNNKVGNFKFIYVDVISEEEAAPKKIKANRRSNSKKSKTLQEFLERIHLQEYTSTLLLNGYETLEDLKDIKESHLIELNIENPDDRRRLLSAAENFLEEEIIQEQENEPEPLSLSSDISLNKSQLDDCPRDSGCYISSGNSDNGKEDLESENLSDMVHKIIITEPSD
UniProt O94855: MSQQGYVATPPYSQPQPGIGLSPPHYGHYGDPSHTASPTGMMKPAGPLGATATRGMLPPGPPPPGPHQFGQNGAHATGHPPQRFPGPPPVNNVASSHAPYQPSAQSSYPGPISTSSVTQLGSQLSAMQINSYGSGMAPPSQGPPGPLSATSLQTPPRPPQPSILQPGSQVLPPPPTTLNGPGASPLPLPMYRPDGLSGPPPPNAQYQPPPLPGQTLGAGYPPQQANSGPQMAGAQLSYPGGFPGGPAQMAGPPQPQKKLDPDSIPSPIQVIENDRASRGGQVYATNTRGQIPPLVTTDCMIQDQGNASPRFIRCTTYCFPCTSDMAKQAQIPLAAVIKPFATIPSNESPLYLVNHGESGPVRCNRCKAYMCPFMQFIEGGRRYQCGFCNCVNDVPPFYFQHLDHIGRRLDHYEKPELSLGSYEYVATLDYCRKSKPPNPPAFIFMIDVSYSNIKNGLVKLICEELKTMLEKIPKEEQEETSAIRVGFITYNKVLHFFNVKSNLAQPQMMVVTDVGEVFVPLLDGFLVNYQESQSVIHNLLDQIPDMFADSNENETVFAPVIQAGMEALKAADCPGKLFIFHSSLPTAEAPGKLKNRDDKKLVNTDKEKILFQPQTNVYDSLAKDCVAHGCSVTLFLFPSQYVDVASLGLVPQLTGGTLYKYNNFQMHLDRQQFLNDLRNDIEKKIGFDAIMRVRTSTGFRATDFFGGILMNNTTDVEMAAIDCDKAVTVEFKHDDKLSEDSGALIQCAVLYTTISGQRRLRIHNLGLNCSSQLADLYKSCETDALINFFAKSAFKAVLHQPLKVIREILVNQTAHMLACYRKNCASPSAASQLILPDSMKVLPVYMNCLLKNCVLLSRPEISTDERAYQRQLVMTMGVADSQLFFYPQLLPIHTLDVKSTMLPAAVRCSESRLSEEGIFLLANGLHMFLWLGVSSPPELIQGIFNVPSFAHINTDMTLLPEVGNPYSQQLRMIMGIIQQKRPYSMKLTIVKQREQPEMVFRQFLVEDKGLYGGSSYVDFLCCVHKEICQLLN
UniProt Q96EE3: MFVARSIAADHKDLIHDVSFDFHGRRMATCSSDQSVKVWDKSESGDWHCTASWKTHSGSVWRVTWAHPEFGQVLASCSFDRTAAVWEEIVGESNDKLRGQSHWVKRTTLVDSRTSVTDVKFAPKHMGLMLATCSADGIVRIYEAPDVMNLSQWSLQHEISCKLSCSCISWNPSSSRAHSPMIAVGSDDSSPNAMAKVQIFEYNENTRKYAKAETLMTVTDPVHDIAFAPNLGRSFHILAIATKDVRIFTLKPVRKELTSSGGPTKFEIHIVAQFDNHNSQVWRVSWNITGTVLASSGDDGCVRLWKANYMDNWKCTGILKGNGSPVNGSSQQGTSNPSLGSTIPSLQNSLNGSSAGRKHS
UniProt Q86SQ7: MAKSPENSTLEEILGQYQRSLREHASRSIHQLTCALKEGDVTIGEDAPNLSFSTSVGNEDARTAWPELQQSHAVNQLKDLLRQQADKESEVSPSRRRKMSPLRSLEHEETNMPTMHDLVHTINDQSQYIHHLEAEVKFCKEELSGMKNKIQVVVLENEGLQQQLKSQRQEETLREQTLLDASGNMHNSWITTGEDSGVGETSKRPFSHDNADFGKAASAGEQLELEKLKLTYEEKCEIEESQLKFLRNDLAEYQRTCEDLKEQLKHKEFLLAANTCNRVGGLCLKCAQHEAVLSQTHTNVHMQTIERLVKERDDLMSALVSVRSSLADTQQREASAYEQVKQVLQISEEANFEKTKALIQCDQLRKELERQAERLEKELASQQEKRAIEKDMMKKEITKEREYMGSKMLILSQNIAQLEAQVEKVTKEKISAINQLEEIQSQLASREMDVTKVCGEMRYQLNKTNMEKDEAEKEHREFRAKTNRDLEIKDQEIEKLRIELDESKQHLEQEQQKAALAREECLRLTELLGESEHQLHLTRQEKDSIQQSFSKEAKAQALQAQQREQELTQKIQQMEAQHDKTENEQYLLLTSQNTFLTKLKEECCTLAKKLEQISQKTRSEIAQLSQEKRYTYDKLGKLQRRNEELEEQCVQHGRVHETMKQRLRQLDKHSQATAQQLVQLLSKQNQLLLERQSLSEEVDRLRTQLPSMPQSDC
UniProt P21912: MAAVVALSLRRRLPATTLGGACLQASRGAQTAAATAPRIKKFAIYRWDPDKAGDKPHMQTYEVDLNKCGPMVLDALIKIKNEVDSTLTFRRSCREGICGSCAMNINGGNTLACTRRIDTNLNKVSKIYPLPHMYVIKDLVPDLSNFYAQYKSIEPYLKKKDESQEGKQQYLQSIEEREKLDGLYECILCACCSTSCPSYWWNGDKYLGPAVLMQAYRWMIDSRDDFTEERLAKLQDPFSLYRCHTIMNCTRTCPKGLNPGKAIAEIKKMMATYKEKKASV
UniProt O15126: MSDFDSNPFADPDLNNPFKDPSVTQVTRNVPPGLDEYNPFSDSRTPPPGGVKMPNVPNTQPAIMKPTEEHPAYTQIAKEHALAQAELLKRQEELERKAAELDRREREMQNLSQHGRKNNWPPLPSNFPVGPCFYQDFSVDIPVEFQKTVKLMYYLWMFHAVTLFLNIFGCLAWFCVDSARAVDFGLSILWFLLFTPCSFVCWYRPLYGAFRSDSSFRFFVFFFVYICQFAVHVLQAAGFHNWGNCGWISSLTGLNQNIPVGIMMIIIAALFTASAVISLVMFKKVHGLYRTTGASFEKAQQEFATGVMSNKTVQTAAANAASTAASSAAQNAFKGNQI
UniProt O00560: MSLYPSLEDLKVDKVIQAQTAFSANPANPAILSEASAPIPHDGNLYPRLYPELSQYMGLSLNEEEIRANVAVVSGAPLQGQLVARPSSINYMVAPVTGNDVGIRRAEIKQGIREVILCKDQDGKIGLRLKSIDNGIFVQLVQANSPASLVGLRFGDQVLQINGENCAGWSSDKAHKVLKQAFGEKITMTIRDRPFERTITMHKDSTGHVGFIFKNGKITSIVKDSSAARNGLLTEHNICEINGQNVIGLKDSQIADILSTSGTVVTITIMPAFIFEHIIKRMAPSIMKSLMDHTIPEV
UniProt Q9BY50: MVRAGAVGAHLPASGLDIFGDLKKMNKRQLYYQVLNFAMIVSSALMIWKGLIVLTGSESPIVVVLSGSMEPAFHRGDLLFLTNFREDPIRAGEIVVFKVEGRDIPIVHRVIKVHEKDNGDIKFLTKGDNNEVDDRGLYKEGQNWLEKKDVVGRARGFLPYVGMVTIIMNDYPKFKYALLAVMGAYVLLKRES
UniProt Q93073: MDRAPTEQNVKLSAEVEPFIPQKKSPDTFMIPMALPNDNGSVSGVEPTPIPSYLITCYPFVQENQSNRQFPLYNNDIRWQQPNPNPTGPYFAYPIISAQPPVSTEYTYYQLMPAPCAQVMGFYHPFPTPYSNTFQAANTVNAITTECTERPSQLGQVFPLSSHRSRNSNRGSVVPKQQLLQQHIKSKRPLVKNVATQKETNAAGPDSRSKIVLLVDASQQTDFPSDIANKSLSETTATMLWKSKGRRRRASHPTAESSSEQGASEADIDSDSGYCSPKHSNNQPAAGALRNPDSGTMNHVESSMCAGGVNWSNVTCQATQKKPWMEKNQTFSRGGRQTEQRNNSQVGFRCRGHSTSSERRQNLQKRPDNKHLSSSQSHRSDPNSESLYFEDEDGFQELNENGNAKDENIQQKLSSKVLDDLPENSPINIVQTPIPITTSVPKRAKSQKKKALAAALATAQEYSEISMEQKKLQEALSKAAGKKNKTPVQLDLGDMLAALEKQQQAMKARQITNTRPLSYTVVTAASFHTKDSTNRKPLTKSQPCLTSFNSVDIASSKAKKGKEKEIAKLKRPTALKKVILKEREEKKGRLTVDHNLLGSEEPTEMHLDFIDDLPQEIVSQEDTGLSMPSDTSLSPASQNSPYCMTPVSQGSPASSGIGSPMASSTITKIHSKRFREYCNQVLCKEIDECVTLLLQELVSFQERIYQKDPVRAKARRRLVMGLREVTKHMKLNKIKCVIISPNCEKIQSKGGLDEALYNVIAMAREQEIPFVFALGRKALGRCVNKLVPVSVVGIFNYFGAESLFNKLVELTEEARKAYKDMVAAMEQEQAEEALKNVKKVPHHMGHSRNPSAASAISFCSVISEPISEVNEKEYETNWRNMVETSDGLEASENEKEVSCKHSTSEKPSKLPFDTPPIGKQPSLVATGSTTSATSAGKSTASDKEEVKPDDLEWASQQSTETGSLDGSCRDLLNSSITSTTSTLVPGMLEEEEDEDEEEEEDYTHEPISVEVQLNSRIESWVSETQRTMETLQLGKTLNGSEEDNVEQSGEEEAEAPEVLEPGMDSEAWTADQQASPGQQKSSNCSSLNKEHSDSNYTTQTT

Columns and labels:
Assay in all cases: log2 fold change, soluble protein after heating vs DMSO (PISA); higher = thermal stabilisation; K562 lysate, 10 uM; active = over 0.2 and 3.5 SD of the protein, either way, in both replicates (recomputed)
[1] = compound: Cc1cn(-c2cc(NC(=O)c3ccc(C)c(Nc4nccc(-c5cccnc5)n4)c3)cc(C(F)(F)F)c2)cn1 [nilotinib]
Procedure, shortened: (§1)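 The values are log-two fold changes in thermal stability compared with solvent controls and come from duplicates. They were obtained by TMTpro 16plex LC-MS/MS, with channel sums equalised, on the supernatant after 21,000xg for 90 min. That supernatant came from crude K562 extract at 1 mg/mL protein treated with 10 μM compound for 30 min, heated for 3 min across 48°C-58°C, pooled and brought to 0.5% NP-40 at 4°C.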

[2] = compound: Cc1nc(Nc2n[nH]c3c2CN(C(=O)N[C@H](CN(C)C)c2ccccc2)C3(C)C)c2sccc2n1
Procedure, shortened: as §1

[3] = compound: Cc1nc(Nc2ncc(C(=O)Nc3c(C)cccc3Cl)s2)cc(N2CCN(CCO)CC2)n1 [dasatinib]
Procedure, shortened: as §1

[4] = compound: Cc1ncc(-c2ccnc(Nc3ccc(S(C)(=O)=O)cc3)n2)n1C(C)C
Procedure, shortened: as §1

[5] = compound: Cn1cc(-c2ccc3c(c2)CCN3C(=O)Cc2cccc(C(F)(F)F)c2)c2c(N)ncnc21
Procedure, shortened: as §1

[6] = compound: Cn1cc(CNCC2CCN(c3ncc(C(=O)NO)cn3)CC2)c2ccccc21 [quisinostat]
Procedure, shortened: as §1

[7] = compound: Cn1cncc1[C@@](N)(c1ccc(Cl)cc1)c1ccc2c(c1)c(-c1cccc(Cl)c1)cc(=O)n2C [tipifarnib]
Procedure, shortened: as §1

[8] = compound: NC(=O)Nc1cc(-c2cccc(F)c2)sc1C(=O)N[C@H]1CCCNC1
Procedure, shortened: as §1

[9] = compound: NC(=O)c1cnc(N[C@@H]2CCCC[C@@H]2N)nc1Nc1cccc(-n2nccn2)c1
Procedure, shortened: as §1

[10] = compound: NC1(c2ccc(-c3nc4ccn5c(=O)[nH]nc5c4cc3-c3ccccc3)cc2)CCC1
Procedure, shortened: as §1

Measured: log2 fold change

S100PBP (UniProt Q96BU1)
inactive: [1] 0.076 | [2] -0.024 | [3] -0.009 | [4] 0.006 | [5] -0.007 | [6] -0.058 | [7] 0.051 | [8] 0.081 | [9] 0.052 | [10] -0.009

SATB2 (UniProt Q9UPW6)
inactive: [1] -0.08 | [2] -0.02 | [3] 0.041 | [4] -0.005 | [5] 0.013 | [6] -0.06 | [7] 0.009 | [8] 0.018 | [9] 0.031 | [10] 0

SCRIB (UniProt Q14160)
inactive: [1] -0.018 | [2] 0.014 | [3] -0.02 | [4] -0.013 | [5] 0.004 | [6] -0.061 | [7] -0.051 | [8] 0.069 | [9] 0.01 | [10] 0.008

SEC31A (UniProt D6REX3)
inactive: [1] 0.008 | [2] -0.002 | [3] -0.012 | [4] -0.009 | [5] 0.028 | [6] -0.014 | [7] 0.005 | [8] -0.009 | [9] 0.009 | [10] 0.016

SDE2 (UniProt Q6IQ49)
inactive: [1] 0.001 | [2] 0.027 | [3] -0.02 | [4] 0.009 | [5] -0.037 | [6] 0.024 | [7] 0.013 | [8] -0.006 | [9] -0.014 | [10] 0.048

SEC61G (UniProt P60059)
inactive: [1] -0.007 | [2] -0.061 | [3] 0 | [4] 0.089 | [5] -0.033 | [6] -0.045 | [7] 0.134 | [8] -0.01 | [9] 0.023 | [10] 0.053

SEPTIN5 (UniProt G3XAH0)
inactive: [1] 0.037 | [2] 0.011 | [3] -0.006 | [4] 0.008 | [5] 0.006 | [6] 0.056 | [7] 0.062 | [8] -0.031 | [9] 0 | [10] -0.011

SAMM50 (UniProt Q9Y512)
inactive: [1] -0.004 | [2] 0.007 | [3] 0.03 | [4] 0.011 | [5] -0.01 | [6] 0.016 | [7] -0.031 | [8] -0.019 | [9] -0.004 | [10] -0.021

SEC16A isoform 5 (UniProt O15027)
inactive: [1] -0.119 | [2] 0.008 | [3] -0.007 | [4] 0.006 | [5] -0.002 | [6] -0.054 | [7] -0.036 | [8] 0.032 | [9] 0.004 | [10] -0.011

SCYL1 (UniProt Q96KG9)
inactive: [1] 0.041 | [2] 0.006 | [3] 0.012 | [4] 0.019 | [5] 0.001 | [6] -0.006 | [7] -0.036 | [8] -0.004 | [9] 0.002 | [10] 0.008

SEC22B (UniProt O75396)
inactive: [1] 0.022 | [2] -0.066 | [3] 0.009 | [4] 0.07 | [5] -0.008 | [6] 0.048 | [7] 0.042 | [8] -0.004 | [9] 0.008 | [10] -0.03

Five consecutive entries already listed, quoted:
SDE2 (UniProt Q6IQ49)
inactive: [1] 0.001 | [2] 0.027 | [3] -0.02 | [4] 0.009 | [5] -0.037 | [6] 0.024 | [7] 0.013 | [8] -0.006 | [9] -0.014 | [10] 0.048

SEC61G (UniProt P60059)
inactive: [1] -0.007 | [2] -0.061 | [3] 0 | [4] 0.089 | [5] -0.033 | [6] -0.045 | [7] 0.134 | [8] -0.01 | [9] 0.023 | [10] 0.053

SEPTIN5 (UniProt G3XAH0)
inactive: [1] 0.037 | [2] 0.011 | [3] -0.006 | [4] 0.008 | [5] 0.006 | [6] 0.056 | [7] 0.062 | [8] -0.031 | [9] 0 | [10] -0.011

SAMM50 (UniProt Q9Y512)
inactive: [1] -0.004 | [2] 0.007 | [3] 0.03 | [4] 0.011 | [5] -0.01 | [6] 0.016 | [7] -0.031 | [8] -0.019 | [9] -0.004 | [10] -0.021

SEC16A isoform 5 (UniProt O15027)
inactive: [1] -0.119 | [2] 0.008 | [3] -0.007 | [4] 0.006 | [5] -0.002 | [6] -0.054 | [7] -0.036 | [8] 0.032 | [9] 0.004 | [10] -0.011

(list continues)

SEPHS1 (UniProt P49903)
inactive: [1] 0.043 | [2] -0.012 | [3] 0.028 | [4] -0.001 | [5] -0.008 | [6] 0.032 | [7] 0.023 | [8] -0.005 | [9] -0.026 | [10] 0.003

SCO1 (UniProt O75880)
inactive: [1] 0.046 | [2] 0.029 | [3] 0.001 | [4] -0.095 | [5] 0 | [6] -0.13 | [7] -0.108 | [8] -0.033 | [9] 0.029 | [10] 0.001

SAMSN1 (UniProt Q9NSI8)
inactive: [1] -0.021 | [2] -0.008 | [3] -0.007 | [4] -0.021 | [5] 0.009 | [6] -0.058 | [7] 0.027 | [8] -0.024 | [9] 0.006 | [10] 0.016

SCAMP3 (UniProt O14828)
inactive: [1] 0.008 | [2] 0.014 | [3] 0.034 | [4] -0.009 | [5] 0 | [6] 0.01 | [7] -0.018 | [8] -0.032 | [9] -0.018 | [10] 0.027

SEC24D isoform 2 (UniProt O94855)
inactive: [1] -0.006 | [2] -0.016 | [3] -0.004 | [4] -0.029 | [5] 0.002 | [6] 0.01 | [7] 0.001 | [8] -0.012 | [9] -0.004 | [10] 0.006

SCLT1 (UniProt Q96NL6)
inactive: [1] 0.016 | [2] -0.043 | [3] -0.035 | [4] 0.049 | [5] -0.061 | [6] -0.197 | [7] -0.041 | [8] 0.035 | [9] -0.034 | [10] -0.063

SEH1L isoform 1 (UniProt Q96EE3)
inactive: [1] -0.009 | [2] -0.019 | [3] 0.032 | [4] 0.006 | [5] 0.007 | [6] -0.008 | [7] -0.008 | [8] 0 | [9] 0.003 | [10] -0.028

SDCCAG8 (UniProt Q86SQ7)
inactive: [1] 0.098 | [2] -0.075 | [3] -0.03 | [4] -0.016 | [5] 0.045 | [6] 0.003 | [7] 0.131 | [8] -0.02 | [9] -0.096 | [10] -0.002

SCAP (UniProt Q12770)
inactive: [1] 0.042 | [2] 0.012 | [3] -0.079 | [4] 0.007 | [5] 0.033 | [6] 0.029 | [7] -0.088 | [8] 0.013 | [9] 0.099 | [10] 0.178

SDHB (UniProt P21912)
inactive: [1] 0.061 | [2] -0.02 | [3] 0.012 | [4] -0.003 | [5] 0.005 | [6] 0.031 | [7] 0.014 | [8] -0.01 | [9] -0.005 | [10] -0.001

SCRN3 (UniProt Q0VDG4)
inactive: [1] -0.028 | [2] -0.03 | [3] 0.002 | [4] 0.015 | [5] -0.019 | [6] 0.047 | [7] -0.011 | [8] 0.002 | [9] -0.027 | [10] -0.024

SCAMP1 (UniProt O15126)
inactive: [1] -0.037 | [2] -0.003 | [3] 0.013 | [4] -0.038 | [5] -0.03 | [6] -0.034 | [7] -0.012 | [8] 0.032 | [9] 0.001 | [10] -0.063

SCAMP4 (UniProt Q969E2)
inactive: [1] 0.033 | [2] -0.003 | [3] 0.021 | [4] -0.053 | [5] -0.057 | [6] 0.08 | [7] -0.044 | [8] -0.037 | [9] -0.034 | [10] 0

SDCBP (UniProt O00560)
inactive: [1] 0.039 | [2] -0.02 | [3] 0.029 | [4] 0.064 | [5] -0.097 | [6] -0.018 | [7] 0.004 | [8] 0.022 | [9] -0.002 | [10] 0.001

SEC11C (UniProt Q9BY50)
inactive: [1] -0.012 | [2] -0.015 | [3] -0.078 | [4] 0.026 | [5] -0.025 | [6] -0.195 | [7] -0.01 | [8] 0.001 | [9] 0.05 | [10] 0.061

SECISBP2L (UniProt Q93073)
inactive: [1] 0.001 | [2] 0.078 | [3] -0.106 | [4] 0.011 | [5] 0.012 | [6] -0.198 | [7] -0.156 | [8] 0.026 | [9] 0.057 | [10] -0.069
